Results on 1 molecule are retold here after doi:10.1101/592881.

These are yes or no findings as the source states them, for the method shown. In cells and extracts the contact can be indirect. A result given as binding can be weak or reduced; the word gives no strength. Sequences can lack the tags named with a protein.

This assay has as its target PNPAR tagged with the C-terminal part of YFP (Arabidopsis thaliana). The assay can be described thus: split reporter.

As for AQGKAVYYDPPYTRSACYGTQRETLVVGVKNNLWQNGRACGRRY (domain or fragment, UniProt Q9ZV52 26-69) [truncated PNP-A (Met1 to Tyr69) tagged with the N-terminal part of YFP], the binding result is “binds”.
